Measured values taken from paper PMC5854132.
These are yes or no findings as the source states them, for the method shown. For part of these data: Binding seen in cells or lysates may run through a third protein. Some results given as binding are weak or reduced against the parent protein; the word gives no strength. For part of these data: Sequences can lack the tags named with a protein. Values belong to the binder of their own block, whether it stands above or below them.

Experiments:
[1] = target: T1, YC-FVE (Arabidopsis thaliana) (UniProt O22607); assay: split reporter; BiFC with YN and YC halves of YFP in Arabidopsis protoplasts; confocal microscopy within 18 hours after transformation
T1 sequence: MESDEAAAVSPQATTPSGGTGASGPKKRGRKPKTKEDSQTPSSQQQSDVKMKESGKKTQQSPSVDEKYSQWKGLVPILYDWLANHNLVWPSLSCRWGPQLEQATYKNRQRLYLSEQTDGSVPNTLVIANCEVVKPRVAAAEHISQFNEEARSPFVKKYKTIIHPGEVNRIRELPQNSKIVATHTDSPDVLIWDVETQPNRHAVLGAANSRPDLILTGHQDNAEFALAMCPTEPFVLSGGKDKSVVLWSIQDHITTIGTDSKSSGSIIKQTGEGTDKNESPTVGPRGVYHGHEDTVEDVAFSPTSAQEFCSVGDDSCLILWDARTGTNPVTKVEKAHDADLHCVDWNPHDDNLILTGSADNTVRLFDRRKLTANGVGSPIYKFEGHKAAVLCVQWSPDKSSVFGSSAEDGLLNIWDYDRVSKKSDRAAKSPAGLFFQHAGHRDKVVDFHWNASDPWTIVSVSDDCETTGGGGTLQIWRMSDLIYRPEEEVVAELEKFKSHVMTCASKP

[2] = target: T2, FVE-GFP (Arabidopsis thaliana) (UniProt O22607); assay: co-IP; total proteins of leaves of transgenic Arabidopsis co-expressing AtIPK2β-MYC and FVE-GFP; anti-GFP antibody overnight at 4 °C, Protein A magnetic beads; blot with anti-MYC
T2 sequence: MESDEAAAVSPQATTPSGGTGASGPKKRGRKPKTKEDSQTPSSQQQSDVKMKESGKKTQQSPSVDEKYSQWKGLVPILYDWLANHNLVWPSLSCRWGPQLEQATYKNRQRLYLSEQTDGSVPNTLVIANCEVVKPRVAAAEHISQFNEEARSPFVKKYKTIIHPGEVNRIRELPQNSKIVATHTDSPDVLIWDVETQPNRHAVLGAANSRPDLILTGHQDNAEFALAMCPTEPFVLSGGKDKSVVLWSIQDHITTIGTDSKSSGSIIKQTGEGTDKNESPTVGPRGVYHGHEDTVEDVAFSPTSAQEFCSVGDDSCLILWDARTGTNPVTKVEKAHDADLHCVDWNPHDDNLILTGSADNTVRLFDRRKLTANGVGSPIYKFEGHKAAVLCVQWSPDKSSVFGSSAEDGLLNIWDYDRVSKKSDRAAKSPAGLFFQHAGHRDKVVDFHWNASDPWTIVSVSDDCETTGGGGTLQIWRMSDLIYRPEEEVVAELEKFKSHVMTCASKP

[3] = target: T3, AtIPK2β in pGBKT7 (yeast two-hybrid bait) (Arabidopsis thaliana) (UniProt Q9FLT2); assay: two-hybrid; BD Matchmaker system (Clontech), pGBKT7 and pGADT7, yeast strain AH109; growth on QDO (SD/-Leu/-Trp/-His/-Ade), 30 °C, 3-5 days; filter β-galactosidase assay
T3 sequence: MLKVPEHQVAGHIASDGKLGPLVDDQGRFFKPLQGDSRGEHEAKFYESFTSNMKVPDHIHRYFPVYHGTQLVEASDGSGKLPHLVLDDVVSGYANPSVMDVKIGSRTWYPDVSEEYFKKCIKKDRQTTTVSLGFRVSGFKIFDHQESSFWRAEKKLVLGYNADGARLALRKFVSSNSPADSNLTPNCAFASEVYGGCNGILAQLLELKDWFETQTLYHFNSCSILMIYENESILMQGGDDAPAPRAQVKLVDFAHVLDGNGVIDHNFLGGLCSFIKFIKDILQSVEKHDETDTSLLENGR

binding [1]: binds
B1: YN-AtIPK2β (protein, UniProt Q9FLT2 1-300)
chain: MLKVPEHQVAGHIASDGKLGPLVDDQGRFFKPLQGDSRGEHEAKFYESFTSNMKVPDHIHRYFPVYHGTQLVEASDGSGKLPHLVLDDVVSGYANPSVMDVKIGSRTWYPDVSEEYFKKCIKKDRQTTTVSLGFRVSGFKIFDHQESSFWRAEKKLVLGYNADGARLALRKFVSSNSPADSNLTPNCAFASEVYGGCNGILAQLLELKDWFETQTLYHFNSCSILMIYENESILMQGGDDAPAPRAQVKLVDFAHVLDGNGVIDHNFLGGLCSFIKFIKDILQSVEKHDETDTSLLENGR

binding [2]: binds
B2: AtIPK2β-MYC (protein, UniProt Q9FLT2 1-300)
chain: MLKVPEHQVAGHIASDGKLGPLVDDQGRFFKPLQGDSRGEHEAKFYESFTSNMKVPDHIHRYFPVYHGTQLVEASDGSGKLPHLVLDDVVSGYANPSVMDVKIGSRTWYPDVSEEYFKKCIKKDRQTTTVSLGFRVSGFKIFDHQESSFWRAEKKLVLGYNADGARLALRKFVSSNSPADSNLTPNCAFASEVYGGCNGILAQLLELKDWFETQTLYHFNSCSILMIYENESILMQGGDDAPAPRAQVKLVDFAHVLDGNGVIDHNFLGGLCSFIKFIKDILQSVEKHDETDTSLLENGR

binding [3]: binds
B3: FVE full-length in pGADT7 (yeast two-hybrid prey) (protein, UniProt O22607 1-507)
chain: MESDEAAAVSPQATTPSGGTGASGPKKRGRKPKTKEDSQTPSSQQQSDVKMKESGKKTQQSPSVDEKYSQWKGLVPILYDWLANHNLVWPSLSCRWGPQLEQATYKNRQRLYLSEQTDGSVPNTLVIANCEVVKPRVAAAEHISQFNEEARSPFVKKYKTIIHPGEVNRIRELPQNSKIVATHTDSPDVLIWDVETQPNRHAVLGAANSRPDLILTGHQDNAEFALAMCPTEPFVLSGGKDKSVVLWSIQDHITTIGTDSKSSGSIIKQTGEGTDKNESPTVGPRGVYHGHEDTVEDVAFSPTSAQEFCSVGDDSCLILWDARTGTNPVTKVEKAHDADLHCVDWNPHDDNLILTGSADNTVRLFDRRKLTANGVGSPIYKFEGHKAAVLCVQWSPDKSSVFGSSAEDGLLNIWDYDRVSKKSDRAAKSPAGLFFQHAGHRDKVVDFHWNASDPWTIVSVSDDCETTGGGGTLQIWRMSDLIYRPEEEVVAELEKFKSHVMTCASKP
